The other results are listed elsewhere or left out.
Experiments:
Assay in all cases: log2 fold change, soluble protein after heating vs DMSO (PISA); higher = thermal stabilisation; K562 cells, 10 uM, 30 min; active = over 0.2 and 3.5 SD of the protein, either way, in both replicates (recomputed)
saracatinib = compound: CN1CCN(CCOc2cc(OC3CCOCC3)c3c(Nc4c(Cl)ccc5c4OCO5)ncnc3c2)CC1 [saracatinib]
Method in brief: (§1)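 K562 cells (2×10^6 cells/mL) were treated with 10 μM compound for 30 min, and aliquots were heated for 3 min over 48°C-58°C. Pooled aliquots were extracted in PBS with 0.5% NP-40 at 4°C, and the supernatant after 21,000xg for 90 min was measured by TMTpro 16plex LC-MS/MS with channel sums equalised. Reported thermal stability, relative to control samples and from duplicates, is a log2 fold change.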

By UniProt entry, the sequences of proteins in these tests, tags left out. Where a name states a change or a piece, a line headed by the entry shows the natural chain unless it says otherwise.
UniProt Q9BV68: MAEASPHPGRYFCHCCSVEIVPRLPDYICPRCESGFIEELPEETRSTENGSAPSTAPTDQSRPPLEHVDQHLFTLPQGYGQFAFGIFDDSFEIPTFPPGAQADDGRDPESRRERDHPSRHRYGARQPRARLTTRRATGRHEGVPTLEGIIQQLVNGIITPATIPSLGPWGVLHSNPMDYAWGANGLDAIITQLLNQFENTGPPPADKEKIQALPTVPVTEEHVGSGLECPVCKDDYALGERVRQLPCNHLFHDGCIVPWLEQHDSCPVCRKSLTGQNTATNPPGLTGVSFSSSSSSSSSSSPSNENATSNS
UniProt P51606: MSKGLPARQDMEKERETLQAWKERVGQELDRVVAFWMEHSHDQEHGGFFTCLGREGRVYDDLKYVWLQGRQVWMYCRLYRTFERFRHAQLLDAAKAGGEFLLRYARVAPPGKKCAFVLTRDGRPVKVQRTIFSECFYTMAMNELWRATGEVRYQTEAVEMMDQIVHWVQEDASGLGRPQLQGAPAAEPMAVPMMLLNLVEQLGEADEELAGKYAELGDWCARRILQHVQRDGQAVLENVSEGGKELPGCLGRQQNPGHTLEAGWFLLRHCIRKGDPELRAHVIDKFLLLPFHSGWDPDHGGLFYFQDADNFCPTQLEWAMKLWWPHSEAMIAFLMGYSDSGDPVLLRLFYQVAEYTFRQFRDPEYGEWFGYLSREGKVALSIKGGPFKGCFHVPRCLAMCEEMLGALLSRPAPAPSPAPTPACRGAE
UniProt A6NED2: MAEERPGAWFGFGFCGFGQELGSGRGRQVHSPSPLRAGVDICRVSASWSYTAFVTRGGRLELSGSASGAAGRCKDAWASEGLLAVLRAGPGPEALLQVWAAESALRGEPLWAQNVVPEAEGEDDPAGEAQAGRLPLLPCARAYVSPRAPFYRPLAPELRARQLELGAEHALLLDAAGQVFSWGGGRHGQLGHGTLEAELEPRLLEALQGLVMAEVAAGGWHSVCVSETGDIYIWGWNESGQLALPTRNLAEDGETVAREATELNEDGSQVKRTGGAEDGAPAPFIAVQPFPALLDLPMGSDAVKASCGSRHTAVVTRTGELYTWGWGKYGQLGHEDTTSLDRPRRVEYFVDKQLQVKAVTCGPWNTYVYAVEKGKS
UniProt P35250, whole entry, looked up: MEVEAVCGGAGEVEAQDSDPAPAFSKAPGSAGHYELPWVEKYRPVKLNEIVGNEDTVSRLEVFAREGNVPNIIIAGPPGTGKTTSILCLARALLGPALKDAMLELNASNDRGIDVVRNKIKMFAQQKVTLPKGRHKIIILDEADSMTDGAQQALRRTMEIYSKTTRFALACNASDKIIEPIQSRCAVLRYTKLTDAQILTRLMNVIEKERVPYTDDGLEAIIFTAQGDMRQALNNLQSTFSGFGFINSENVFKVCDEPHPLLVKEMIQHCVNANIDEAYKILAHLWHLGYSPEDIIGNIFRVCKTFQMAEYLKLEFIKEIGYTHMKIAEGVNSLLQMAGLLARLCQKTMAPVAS
UniProt P08134, whole entry, looked up: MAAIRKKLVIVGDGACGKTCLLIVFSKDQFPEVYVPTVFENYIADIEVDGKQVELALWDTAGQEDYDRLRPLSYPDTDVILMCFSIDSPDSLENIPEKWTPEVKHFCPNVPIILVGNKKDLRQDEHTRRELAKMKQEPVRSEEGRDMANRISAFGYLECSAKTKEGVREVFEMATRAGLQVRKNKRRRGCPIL
UniProt O15541: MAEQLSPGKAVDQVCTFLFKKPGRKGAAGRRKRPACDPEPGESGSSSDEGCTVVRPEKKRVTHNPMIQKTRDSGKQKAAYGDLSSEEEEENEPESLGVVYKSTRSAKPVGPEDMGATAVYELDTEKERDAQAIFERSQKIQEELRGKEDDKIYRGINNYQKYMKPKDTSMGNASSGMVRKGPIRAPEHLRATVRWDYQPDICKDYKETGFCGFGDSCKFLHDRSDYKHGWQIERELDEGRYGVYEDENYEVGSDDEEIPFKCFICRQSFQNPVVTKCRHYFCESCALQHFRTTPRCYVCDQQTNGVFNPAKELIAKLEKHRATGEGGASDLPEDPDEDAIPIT
UniProt P40937, whole entry, looked up: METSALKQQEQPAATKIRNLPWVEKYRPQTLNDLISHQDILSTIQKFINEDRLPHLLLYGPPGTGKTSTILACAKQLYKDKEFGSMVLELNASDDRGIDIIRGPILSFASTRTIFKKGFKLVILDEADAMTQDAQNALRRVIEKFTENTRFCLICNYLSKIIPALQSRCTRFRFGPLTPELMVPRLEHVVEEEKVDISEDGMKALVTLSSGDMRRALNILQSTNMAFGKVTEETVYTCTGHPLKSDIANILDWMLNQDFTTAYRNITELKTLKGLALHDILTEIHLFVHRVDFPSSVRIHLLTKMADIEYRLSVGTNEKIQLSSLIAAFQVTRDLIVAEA
UniProt Q9BTD8: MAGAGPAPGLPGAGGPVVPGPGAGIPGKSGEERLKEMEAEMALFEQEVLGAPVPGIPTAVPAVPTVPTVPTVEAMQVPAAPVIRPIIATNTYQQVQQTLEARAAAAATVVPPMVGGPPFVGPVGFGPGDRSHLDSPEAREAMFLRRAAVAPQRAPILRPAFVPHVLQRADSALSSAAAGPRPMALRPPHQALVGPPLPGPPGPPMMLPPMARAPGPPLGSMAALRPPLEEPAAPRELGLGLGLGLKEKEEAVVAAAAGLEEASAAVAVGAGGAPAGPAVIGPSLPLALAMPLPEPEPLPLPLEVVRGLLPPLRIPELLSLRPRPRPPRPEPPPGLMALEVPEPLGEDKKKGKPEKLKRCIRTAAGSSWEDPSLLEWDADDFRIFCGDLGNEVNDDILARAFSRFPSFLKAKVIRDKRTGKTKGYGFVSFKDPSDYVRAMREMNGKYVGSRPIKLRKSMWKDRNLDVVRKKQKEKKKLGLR
UniProt Q02094: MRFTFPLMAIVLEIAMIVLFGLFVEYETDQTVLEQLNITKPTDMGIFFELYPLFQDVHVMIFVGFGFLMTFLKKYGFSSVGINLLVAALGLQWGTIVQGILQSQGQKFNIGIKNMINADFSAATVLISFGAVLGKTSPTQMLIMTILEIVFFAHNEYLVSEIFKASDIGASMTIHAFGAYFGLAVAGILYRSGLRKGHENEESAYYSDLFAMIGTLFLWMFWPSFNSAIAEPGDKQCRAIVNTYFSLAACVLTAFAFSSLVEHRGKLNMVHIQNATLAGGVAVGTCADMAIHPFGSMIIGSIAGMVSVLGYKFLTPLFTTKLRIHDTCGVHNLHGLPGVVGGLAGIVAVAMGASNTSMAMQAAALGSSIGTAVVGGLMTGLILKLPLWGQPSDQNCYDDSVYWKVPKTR
UniProt Q9P0P0: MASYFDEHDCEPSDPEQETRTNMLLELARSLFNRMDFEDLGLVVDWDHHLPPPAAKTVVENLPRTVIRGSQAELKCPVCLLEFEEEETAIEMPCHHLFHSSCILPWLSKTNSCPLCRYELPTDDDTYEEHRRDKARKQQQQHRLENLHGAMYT
UniProt Q5TBB1: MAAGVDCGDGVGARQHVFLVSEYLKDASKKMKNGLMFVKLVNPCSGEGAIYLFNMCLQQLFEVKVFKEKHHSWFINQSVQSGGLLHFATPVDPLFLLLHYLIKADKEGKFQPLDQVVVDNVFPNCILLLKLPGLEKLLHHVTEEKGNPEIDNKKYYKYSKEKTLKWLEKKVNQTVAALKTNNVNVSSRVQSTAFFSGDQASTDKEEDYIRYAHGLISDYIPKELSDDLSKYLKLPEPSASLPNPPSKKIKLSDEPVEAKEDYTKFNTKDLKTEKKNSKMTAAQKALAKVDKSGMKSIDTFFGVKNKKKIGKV
UniProt Q96TC7: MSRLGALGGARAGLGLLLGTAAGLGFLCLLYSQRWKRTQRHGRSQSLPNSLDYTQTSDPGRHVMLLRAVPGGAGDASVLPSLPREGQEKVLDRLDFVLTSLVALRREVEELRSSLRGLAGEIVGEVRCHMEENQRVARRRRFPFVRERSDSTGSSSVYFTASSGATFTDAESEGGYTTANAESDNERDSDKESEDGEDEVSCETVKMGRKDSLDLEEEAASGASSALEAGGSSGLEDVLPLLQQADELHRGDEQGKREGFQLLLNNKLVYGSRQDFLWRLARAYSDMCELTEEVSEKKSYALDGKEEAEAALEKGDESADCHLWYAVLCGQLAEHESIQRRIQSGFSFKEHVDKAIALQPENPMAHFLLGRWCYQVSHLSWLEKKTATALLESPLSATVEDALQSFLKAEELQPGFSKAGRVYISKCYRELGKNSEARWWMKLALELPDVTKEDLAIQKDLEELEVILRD
UniProt Q8WZ73: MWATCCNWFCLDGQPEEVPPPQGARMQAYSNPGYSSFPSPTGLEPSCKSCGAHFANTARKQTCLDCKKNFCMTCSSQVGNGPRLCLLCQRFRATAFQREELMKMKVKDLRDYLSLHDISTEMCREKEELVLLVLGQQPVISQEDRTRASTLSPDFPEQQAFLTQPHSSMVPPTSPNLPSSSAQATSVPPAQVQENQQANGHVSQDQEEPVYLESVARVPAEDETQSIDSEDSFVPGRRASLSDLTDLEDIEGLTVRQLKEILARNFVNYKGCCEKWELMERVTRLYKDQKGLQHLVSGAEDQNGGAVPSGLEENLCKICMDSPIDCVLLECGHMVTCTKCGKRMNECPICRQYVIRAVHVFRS
UniProt Q969G6: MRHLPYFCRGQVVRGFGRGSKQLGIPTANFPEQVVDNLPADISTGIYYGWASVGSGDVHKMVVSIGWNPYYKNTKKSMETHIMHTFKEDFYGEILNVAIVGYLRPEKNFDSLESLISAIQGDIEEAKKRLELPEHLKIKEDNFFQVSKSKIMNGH
UniProt P62877, whole entry, looked up: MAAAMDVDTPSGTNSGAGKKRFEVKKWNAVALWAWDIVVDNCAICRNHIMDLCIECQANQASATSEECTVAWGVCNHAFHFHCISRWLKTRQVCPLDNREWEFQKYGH
UniProt Q8NC44: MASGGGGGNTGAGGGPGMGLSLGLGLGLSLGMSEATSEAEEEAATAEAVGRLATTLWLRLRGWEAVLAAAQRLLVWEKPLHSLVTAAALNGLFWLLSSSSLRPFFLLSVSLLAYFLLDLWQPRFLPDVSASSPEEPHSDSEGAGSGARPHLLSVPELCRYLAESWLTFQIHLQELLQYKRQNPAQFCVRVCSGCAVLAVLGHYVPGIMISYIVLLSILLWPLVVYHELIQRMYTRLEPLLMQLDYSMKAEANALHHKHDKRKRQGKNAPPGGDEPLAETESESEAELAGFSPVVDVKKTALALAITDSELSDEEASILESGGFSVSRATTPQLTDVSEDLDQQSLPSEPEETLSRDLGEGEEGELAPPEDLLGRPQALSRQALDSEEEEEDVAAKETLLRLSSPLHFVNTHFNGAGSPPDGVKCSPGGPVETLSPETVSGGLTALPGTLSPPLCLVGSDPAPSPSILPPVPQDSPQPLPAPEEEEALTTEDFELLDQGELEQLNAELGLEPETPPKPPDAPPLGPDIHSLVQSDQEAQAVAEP

sotrastaurin = compound: CN1CCN(c2nc(C3=C(c4c[nH]c5ccccc45)C(=O)NC3=O)c3ccccc3n2)CC1 [sotrastaurin]
Method in brief: as §1

alvocidib = compound: CN1CC[C@H](c2c(O)cc(O)c3c(=O)cc(-c4ccccc4Cl)oc23)[C@H](O)C1 [alvocidib]
Method in brief: as §1

Tubastatin A = compound: CN1CCc2c(c3ccccc3n2Cc2ccc(C(=O)NO)cc2)C1 [Tubastatin A]
Method in brief: as §1

[1] = compound: CNC(=O)C1=CC=CC=C1NC2=NC(=NC=C2Cl)NC3=C(C=C(C=C3)N4CCOCC4)OC
Method in brief: as §1

defactinib = compound: CNC(=O)c1ccc(Nc2ncc(C(F)(F)F)c(NCc3nccnc3N(C)S(C)(=O)=O)n2)cc1 [defactinib]
Method in brief: as §1

rucaparib = compound: CNCc1ccc(-c2[nH]c3cc(F)cc4c3c2CCNC4=O)cc1 [rucaparib]
Method in brief: as §1

[2] = compound: CNc1nc(-c2ccc3c(N)n[nH]c3c2)cc(N2C[C@@H](C(=O)NC3CCCCC3)CC[C@H]2C)n1
Method in brief: as §1

encorafenib = compound: COC(=O)N[C@@H](C)CNc1nccc(-c2cn(C(C)C)nc2-c2cc(Cl)cc(NS(C)(=O)=O)c2F)n1 [encorafenib]
Method in brief: as §1

[3] = compound: COC(=O)[C@H](CCSC)NC(=O)C1=C(C=C(C=C1)NC[C@H](CS)N)C2=CC=CC=C2
Method in brief: as §1

[4] = compound: COC1=CC=C(C=C1)CN2C=CC3=C2C=C(C=C3)C(=O)NO
Method in brief: as §1

filanesib = compound: CON(C)C(=O)N1N=C(c2cc(F)ccc2F)S[C@@]1(CCCN)c1ccccc1 [filanesib]
Method in brief: as §1

zotarolimus = compound: CO[C@H]1C[C@@H]2CC[C@@H](C)[C@@](O)(O2)C(=O)C(=O)N2CCCC[C@H]2C(=O)O[C@H]([C@H](C)C[C@@H]2CC[C@H](n3cnnn3)[C@H](OC)C2)CC(=O)[C@H](C)/C=C(\C)[C@@H](O)[C@@H](OC)C(=O)[C@H](C)C[C@H](C)/C=C/C=C/C=C/1C [zotarolimus]
Method in brief: as §1

idasanutlin = compound: COc1cc(C(=O)O)ccc1NC(=O)[C@@H]1N[C@@H](CC(C)(C)C)[C@](C#N)(c2ccc(Cl)cc2F)[C@H]1c1cccc(Cl)c1F [idasanutlin]
Method in brief: as §1

alisertib = compound: COc1cc(Nc2ncc3c(n2)-c2ccc(Cl)cc2C(c2c(F)cccc2OC)=NC3)ccc1C(=O)O [alisertib]
Method in brief: as §1

[5] = compound: COc1cc2nc(-c3cc(F)ccc3O)nc(N[C@@H]3CNC[C@H]3C(C)(C)O)c2cc1OC
Method in brief: as §1

gefitinib = compound: COc1cc2ncnc(Nc3ccc(F)c(Cl)c3)c2cc1OCCCN1CCOCC1 [gefitinib]
Method in brief: as §1

[6] = compound: COc1cccc2cc(-c3nc([C@H]4CC[C@H](C(=O)O)CC4)n4ncnc(N)c34)[nH]c12
Method in brief: as §1

lapatinib = compound: CS(=O)(=O)CCNCc1ccc(-c2ccc3ncnc(Nc4ccc(OCc5cccc(F)c5)c(Cl)c4)c3c2)o1 [lapatinib]
Method in brief: as §1

pictilisib = compound: CS(=O)(=O)N1CCN(Cc2cc3nc(-c4cccc5[nH]ncc45)nc(N4CCOCC4)c3s2)CC1 [pictilisib]
Method in brief: as §1

Measured: log2 fold change

RNF126 (UniProt Q9BV68)
inactive: saracatinib 0.065 | sotrastaurin -0.003 | alvocidib -0.041 | Tubastatin A -0.029 | [1] 0.027 | defactinib -0.004 | rucaparib -0.01 | [2] -0.051 | encorafenib -0.025 | [3] 0.054 | [4] 0.034 | filanesib -0.02 | zotarolimus -0.08 | idasanutlin 0.042 | alisertib 0.039 | [5] 0.021 | gefitinib 0.034 | [6] 0.013 | lapatinib 0.078 | pictilisib -0.107

RENBP (UniProt P51606)
inactive: saracatinib 0.016 | sotrastaurin 0.03 | alvocidib -0.036 | Tubastatin A 0.012 | [1] -0.021 | defactinib 0.005 | rucaparib -0.077 | [2] -0.032 | encorafenib -0.011 | [3] 0.027 | [4] -0.049 | filanesib -0.035 | zotarolimus 0.058 | idasanutlin -0.042 | alisertib -0.023 | [5] -0.189 | gefitinib 0.032 | [6] 0.06 | lapatinib -0.031 | pictilisib -0.06

RCCD1 (UniProt A6NED2)
inactive: saracatinib 0.108 | sotrastaurin 0.073 | alvocidib -0.089 | Tubastatin A -0.058 | [1] 0.022 | defactinib -0.055 | rucaparib 0.026 | [2] -0.047 | encorafenib -0.011 | [3] 0.012 | [4] 0.057 | filanesib -0.032 | zotarolimus 0.007 | idasanutlin 0.028 | alisertib -0.109 | [5] -0.027 | gefitinib 0.142 | [6] -0.006 | lapatinib 0.038 | pictilisib 0.005

RFC2 (UniProt P35250)
inactive: saracatinib 0.001 | sotrastaurin 0.004 | alvocidib -0.047 | Tubastatin A -0.037 | [1] -0.049 | defactinib -0.035 | rucaparib 0.004 | [2] 0.014 | encorafenib 0.006 | [3] 0.021 | [4] 0.05 | filanesib -0.04 | zotarolimus 0.029 | idasanutlin -0.046 | alisertib -0.028 | [5] -0.004 | gefitinib -0.032 | [6] 0.026 | lapatinib -0.012 | pictilisib -0.045

RHOC (UniProt P08134)
inactive: saracatinib -0.008 | sotrastaurin 0.045 | alvocidib -0.006 | Tubastatin A -0.003 | [1] 0.176 | defactinib 0 | rucaparib -0.054 | [2] -0.021 | encorafenib -0.016 | [3] -0.004 | [4] -0.017 | filanesib -0.032 | zotarolimus -0.024 | idasanutlin 0.012 | alisertib -0.047 | [5] 0.025 | gefitinib -0.005 | [6] 0.063 | lapatinib -0.007 | pictilisib 0.025

RNF113A (UniProt O15541)
inactive: saracatinib 0.014 | sotrastaurin 0.053 | alvocidib 0.001 | Tubastatin A -0.04 | [1] -0.033 | defactinib 0.01 | rucaparib -0.016 | [2] -0.014 | encorafenib 0 | [3] 0.047 | [4] -0.011 | filanesib -0.012 | zotarolimus -0.013 | idasanutlin -0.021 | alisertib -0.047 | [5] -0.002 | gefitinib 0.015 | [6] 0.042 | lapatinib -0.012 | pictilisib 0.06

RFC5 (UniProt P40937)
inactive: saracatinib 0.03 | sotrastaurin 0.003 | alvocidib -0.028 | Tubastatin A 0.002 | [1] -0.029 | defactinib -0.028 | rucaparib 0.005 | [2] -0.007 | encorafenib 0.007 | [3] -0.008 | [4] -0.027 | filanesib -0.061 | zotarolimus 0.026 | idasanutlin -0.084 | alisertib -0.026 | [5] 0.05 | gefitinib -0.027 | [6] 0.029 | lapatinib 0 | pictilisib 0.003

RBM42 (UniProt Q9BTD8)
inactive: saracatinib -0.111 | sotrastaurin 0.016 | alvocidib 0.137 | Tubastatin A 0.046 | [1] 0.068 | defactinib 0.014 | rucaparib 0.185 | [2] -0.041 | encorafenib -0.002 | [3] -0.045 | [4] -0.055 | filanesib 0.146 | zotarolimus -0.03 | idasanutlin 0.05 | alisertib -0.038 | [5] -0.062 | gefitinib -0.032 | [6] -0.082 | lapatinib 0.066 | pictilisib -0.114

RHAG (UniProt Q02094)
inactive: saracatinib -0.021 | sotrastaurin -0.149 | alvocidib -0.011 | Tubastatin A 0.061 | [1] 0.07 | defactinib -0.049 | rucaparib -0.064 | [2] -0.021 | encorafenib 0.262 | [3] -0.027 | [4] 0.026 | filanesib -0.282 | zotarolimus -0.014 | idasanutlin -0.108 | alisertib 0.059 | [5] -0.21 | gefitinib -0.093 | [6] 0.085 | lapatinib 0.109 | pictilisib -0.106

RNF181 (UniProt Q9P0P0)
inactive: saracatinib 0.041 | sotrastaurin 0.023 | alvocidib 0.043 | Tubastatin A 0.069 | [1] -0.047 | defactinib -0.004 | rucaparib -0.047 | [2] -0.075 | encorafenib -0.027 | [3] 0.04 | [4] -0.03 | filanesib 0.032 | zotarolimus -0.021 | idasanutlin 0.057 | alisertib -0.07 | [5] -0.009 | gefitinib 0.011 | [6] 0.032 | lapatinib 0.003 | pictilisib -0.003

RNASEH2B (UniProt Q5TBB1)
inactive: saracatinib -0.06 | sotrastaurin -0.238 | alvocidib -0.222 | Tubastatin A 0.189 | [1] 0.073 | defactinib -0.14 | rucaparib -0.041 | [2] 0.138 | encorafenib 0.079 | [3] -0.006 | [4] 0.17 | filanesib -0.328 | zotarolimus 0.07 | idasanutlin -0.088 | alisertib 0.065 | [5] 0.112 | gefitinib 0.05 | [6] 0.069 | lapatinib -0.095 | pictilisib 0.13

RMDN3 (UniProt Q96TC7)
inactive: saracatinib -0.046 | sotrastaurin 0.015 | alvocidib -0.039 | Tubastatin A 0.009 | [1] -0.043 | defactinib -0.027 | rucaparib 0.021 | [2] 0.066 | encorafenib 0.049 | [3] -0.018 | [4] 0.037 | filanesib -0.048 | zotarolimus 0.022 | idasanutlin -0.026 | alisertib -0.057 | [5] 0.013 | gefitinib 0.076 | [6] 0.019 | lapatinib 0.036 | pictilisib 0.022

RFFL (UniProt Q8WZ73)
inactive: saracatinib 0.13 | sotrastaurin -0.04 | alvocidib 0.011 | Tubastatin A -0.042 | [1] -0.087 | defactinib -0.232 | rucaparib 0.077 | [2] 0.024 | encorafenib 0.226 | [3] 0.064 | [4] 0.004 | filanesib -0.036 | zotarolimus -0.085 | idasanutlin -0.164 | alisertib 0.066 | [5] -0.061 | gefitinib 0.067 | [6] -0.139 | lapatinib 0.119

RFK (UniProt Q969G6)
inactive: saracatinib -0.01 | sotrastaurin 0.02 | alvocidib 0.032 | Tubastatin A -0.02 | [1] -0.022 | defactinib -0.016 | rucaparib 0.032 | [2] -0.041 | encorafenib 0.073 | [3] 0.016 | [4] 0.078 | filanesib 0 | zotarolimus 0.006 | idasanutlin -0.006 | alisertib 0.029 | [5] -0.037 | gefitinib -0.034 | [6] 0.124 | lapatinib 0.049 | pictilisib 0.002

RBX1 (UniProt P62877)
inactive: saracatinib 0.117 | sotrastaurin 0.007 | alvocidib -0.01 | Tubastatin A -0.037 | [1] -0.127 | defactinib -0.068 | rucaparib -0.116 | [2] -0.011 | encorafenib 0.048 | [3] 0.031 | [4] -0.041 | filanesib 0.09 | zotarolimus -0.076 | idasanutlin -0.068 | alisertib 0.086 | [5] 0.093 | gefitinib -0.015 | [6] -0.05 | lapatinib 0.092 | pictilisib 0.066

RETREG2 (UniProt Q8NC44)
inactive: saracatinib 0.059 | sotrastaurin -0.018 | alvocidib -0.145 | Tubastatin A 0.06 | [1] 0.095 | defactinib 0.035 | rucaparib -0.028 | [2] 0.038 | encorafenib -0.055 | [3] 0.021 | [4] -0.09 | filanesib -0.147 | zotarolimus 0.105 | idasanutlin -0.045 | alisertib -0.288 | [5] -0.076 | gefitinib -0.038 | [6] 0.076 | lapatinib 0.093

Two consecutive entries already listed:
RMDN3 (UniProt Q96TC7)
inactive: saracatinib -0.046 | sotrastaurin 0.015 | alvocidib -0.039 | Tubastatin A 0.009 | [1] -0.043 | defactinib -0.027 | rucaparib 0.021 | [2] 0.066 | encorafenib 0.049 | [3] -0.018 | [4] 0.037 | filanesib -0.048 | zotarolimus 0.022 | idasanutlin -0.026 | alisertib -0.057 | [5] 0.013 | gefitinib 0.076 | [6] 0.019 | lapatinib 0.036 | pictilisib 0.022

RFFL (UniProt Q8WZ73)
inactive: saracatinib 0.13 | sotrastaurin -0.04 | alvocidib 0.011 | Tubastatin A -0.042 | [1] -0.087 | defactinib -0.232 | rucaparib 0.077 | [2] 0.024 | encorafenib 0.226 | [3] 0.064 | [4] 0.004 | filanesib -0.036 | zotarolimus -0.085 | idasanutlin -0.164 | alisertib 0.066 | [5] -0.061 | gefitinib 0.067 | [6] -0.139 | lapatinib 0.119
